Experimental data as given in PubChem BioAssay AID504467 (National Center for Advancing Translational Sciences (NCATS), 2011).
In all, about 330,000 compounds went through this assay and about 7,700 (2.3%) were called active. The inconclusive results got no clear call from the source; some entries with a clear call stand among them for comparison. The call rests on the fitted dose curve; in most records, active means well fitted inhibition curve with a large enough effect; inconclusive means small, poorly fitted or top-dose-only effect, or effect the other way; inactive means flat fitted curve, though single readings scatter. Potencies beside an inconclusive call are fits to weak or partial responses and may not hold up.

Test: qHTS screen for small molecules that inhibit ELG1-dependent DNA repair in human embryonic kidney (HEK293T) cells expressing luciferase-tagged ELG1; further: nearly all actives have a fitted effect of over 55% in size
Settings: HEK293T ELG1-luciferase reporter, luminescence, 16 h, DNA damage induced by 5-fluorouridine; activity change, negative = inhibition: at 46.1 µM (top of the series)
Procedure, shortened: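 5-Fluorouridine DNA damage + compound/DMSO, 2,000 cells/well, 16 h, 37 °C/5% CO2. ONE-Glo, 30 min RT, luminescence. Readout = decrease in reporter signal.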
On the % scale 0 is the no-effect control and ±100 the full control effect; potency means the concentration at half of the fitted maximal effect.

Row | Compound | activity change, negative = inhibition | Potency
1 | CCN1C(=O)[C@H]2[C@@H](c3ccc(-c4ccccc4)cc3)N3CCCC[C@@]3(C(=O)OC)[C@H]2C1=O | inactive: -14% | 
2 | O=C(Nn1cnc2ccccc2c1=O)c1ccc(Br)cc1 |  | inconclusive: 23.1 µM [activator, partial curve]
3 | O=C(Nc1cccc(NC(=O)c2ccc(-c3ccc(Br)cc3)o2)c1)c1ccco1 |  | active: 9.2 µM
4 | O=C(CSc1nnc(Cc2cccs2)n1C1CCCCC1)N1CCCc2ccccc21 |  | inconclusive: 23.1 µM [inhibitor, single point]
5 | COCC(=O)N[C@@H]1c2cc(OC)c(OC)cc2C[C@H]1OCc1ccccc1 |  | inconclusive: 29.1 µM [inhibitor, single point]
6 | C[C@H](CO)N1C[C@H](C)[C@@H](CN(C)Cc2ccc3c(c2)OCO3)Oc2c(NS(=O)(=O)c3cn(C)cn3)cccc2C1=O |  | inconclusive: 16.4 µM [activator, partial curve, poor fit]
7 | O=C(Nc1cccc(S(=O)(=O)N2CCOCC2)c1)c1ccc(N2CCCC2=O)cc1 |  | inconclusive: 16.4 µM [inhibitor, single point]
8 | COc1cc(Br)ccc1C1CC(=O)C(C)C(c2ccc(Br)cc2OC)N1 (centres undefined) |  | inconclusive: 6.51 µM [inhibitor, single point]
9 | c1ccc2c(c1)CCN(Cc1nnnn1Cc1ccc3c(c1)OCO3)C2 | inactive: -2.9% | 
10 | COc1ccc(S(=O)(=O)N2CCOCC2)cc1NC(=O)c1ccccc1-c1ccc(C(F)(F)F)cc1 |  | inconclusive: 29.1 µM [activator, single point]
11 | CCc1ccc(NC(=O)c2noc3c2CCCCC3)cc1 |  | inconclusive: 2.59 µM [activator, full curve]
12 | CCC(C)c1ccccc1N1CC(C(=O)N2CCN(S(=O)(=O)c3ccccc3Br)CC2)CC1=O (centres undefined) | inactive: -4.99% | 
13 | CC(O)C(=O)N/N=C/c1cccc(Cl)c1Cl (centres undefined) |  | inconclusive: 10.3 µM [activator, partial curve, poor fit]
14 | COc1cc(C(=O)NC(=S)NCc2ccco2)cc(OC)c1OC |  | inconclusive: 29.1 µM [inhibitor, single point]
15 | Cc1ccc2c(c1)c(N=Nc1cccc(C(=O)O)c1)c(O)n2C |  | inconclusive: 18.3 µM [activator, single point]
16 | CC1(C)OC(=O)C(=CNc2ccc(F)cc2)C(=O)O1 |  | inconclusive: 23.1 µM [activator, partial curve, poor fit]
17 | c1ccc(-c2cc(-c3nc4ccccc4[nH]3)c3ccccc3n2)cc1 |  | active: 20.6 µM
18 | Cc1ccc(C(=O)c2c(NC(=O)c3ccncc3)sc3c2CCCC3)cc1 |  | inconclusive: 16.4 µM [inhibitor, partial curve, poor fit]
19 | COc1ccc(-n2ncc3c2CC(C)(C)CC3NC(=O)CCn2nc(C)cc2C)cc1 (centres undefined) | inactive: -6.56% | 
20 | CCCCn1c(-c2ccsc2)nc2c1c(=O)[nH]c(=O)n2CCC |  | inconclusive: 32.6 µM [activator, partial curve, poor fit]
21 | CC[n+]1ccc(C)c2cc(S(=O)C(F)(F)F)ccc21 (centres undefined) |  | inconclusive: 32.6 µM [inhibitor, single point]
22 | O=C(N/N=C/c1ccccc1O)c1cccc(C(F)(F)F)c1 |  | inconclusive: 6.51 µM [inhibitor, single point]

A draw from above in order of length of the SMILES, rising.
Row | Compound | activity change, negative = inhibition | Potency
13 | CC(O)C(=O)N/N=C/c1cccc(Cl)c1Cl (centres undefined) |  | inconclusive: 10.3 µM [activator, partial curve, poor fit]
11 | CCc1ccc(NC(=O)c2noc3c2CCCCC3)cc1 |  | inconclusive: 2.59 µM [activator, full curve]
2 | O=C(Nn1cnc2ccccc2c1=O)c1ccc(Br)cc1 |  | inconclusive: 23.1 µM [activator, partial curve]
16 | CC1(C)OC(=O)C(=CNc2ccc(F)cc2)C(=O)O1 |  | inconclusive: 23.1 µM [activator, partial curve, poor fit]
21 | CC[n+]1ccc(C)c2cc(S(=O)C(F)(F)F)ccc21 (centres undefined) |  | inconclusive: 32.6 µM [inhibitor, single point]
22 | O=C(N/N=C/c1ccccc1O)c1cccc(C(F)(F)F)c1 |  | inconclusive: 6.51 µM [inhibitor, single point]
15 | Cc1ccc2c(c1)c(N=Nc1cccc(C(=O)O)c1)c(O)n2C |  | inconclusive: 18.3 µM [activator, single point]
9 | c1ccc2c(c1)CCN(Cc1nnnn1Cc1ccc3c(c1)OCO3)C2 | inactive: -2.9% | 
17 | c1ccc(-c2cc(-c3nc4ccccc4[nH]3)c3ccccc3n2)cc1 |  | active: 20.6 µM
18 | Cc1ccc(C(=O)c2c(NC(=O)c3ccncc3)sc3c2CCCC3)cc1 |  | inconclusive: 16.4 µM [inhibitor, partial curve, poor fit]
4 | O=C(CSc1nnc(Cc2cccs2)n1C1CCCCC1)N1CCCc2ccccc21 |  | inconclusive: 23.1 µM [inhibitor, single point]
5 | COCC(=O)N[C@@H]1c2cc(OC)c(OC)cc2C[C@H]1OCc1ccccc1 |  | inconclusive: 29.1 µM [inhibitor, single point]
19 | COc1ccc(-n2ncc3c2CC(C)(C)CC3NC(=O)CCn2nc(C)cc2C)cc1 (centres undefined) | inactive: -6.56% | 
7 | O=C(Nc1cccc(S(=O)(=O)N2CCOCC2)c1)c1ccc(N2CCCC2=O)cc1 |  | inconclusive: 16.4 µM [inhibitor, single point]
12 | CCC(C)c1ccccc1N1CC(C(=O)N2CCN(S(=O)(=O)c3ccccc3Br)CC2)CC1=O (centres undefined) | inactive: -4.99% | 
10 | COc1ccc(S(=O)(=O)N2CCOCC2)cc1NC(=O)c1ccccc1-c1ccc(C(F)(F)F)cc1 |  | inconclusive: 29.1 µM [activator, single point]
1 | CCN1C(=O)[C@H]2[C@@H](c3ccc(-c4ccccc4)cc3)N3CCCC[C@@]3(C(=O)OC)[C@H]2C1=O | inactive: -14% | 
6 | C[C@H](CO)N1C[C@H](C)[C@@H](CN(C)Cc2ccc3c(c2)OCO3)Oc2c(NS(=O)(=O)c3cn(C)cn3)cccc2C1=O |  | inconclusive: 16.4 µM [activator, partial curve, poor fit]

(continued)

Row | Compound | activity change, negative = inhibition | Potency
23 | COCc1cc(C)nc(SCC(=O)Nc2ccc3c(c2)OCCO3)c1C#N |  | inconclusive: 18.3 µM [activator, single point]
24 | CCCCn1c(N)c(N(CC(C)C)C(=O)CSc2ccccc2C)c(=O)[nH]c1=O | inactive: 12.4% | 
25 | O=c1[nH]c(-c2ccccc2)nnc1-c1ccccc1 |  | inconclusive: 20.6 µM [activator, partial curve]
26 | CCCOC(=O)c1ccc(-n2nnnc2SCC(=O)N2CCCCC2)cc1 |  | inconclusive: 23.1 µM [inhibitor, partial curve]
27 | C=C1C(=O)O[C@H]2C[C@]3(C)C([C@@H](OC(=O)/C(C)=C/C)[C@H]12)[C@](C)(O)CC[C@H]3O (some centres undefined) | inactive: 15.2% | 
28 | O=C(NCC1CCCN1S(=O)(=O)c1cccs1)C(=O)Nc1ccc(F)cc1 (centres undefined) |  | inconclusive: 11.6 µM [activator, single point]
29 | CCN(C[C@H]1N[C@@](Cc2ccccc2)(C(=O)OC)[C@H]2C(=O)N(C)C(=O)[C@@H]12)S(=O)(=O)c1ccc(OC(F)(F)F)cc1 |  | active: 20.6 µM
30 | Nc1ccc(-c2nc3cc(N)ccc3s2)cc1 |  | inconclusive: 5.17 µM [activator, partial curve]
31 | C/C(=N\NC(=O)c1c[nH]c2ccccc12)c1ccccn1 |  | inconclusive: 18.3 µM [activator, partial curve]
32 | CCOc1ccccc1-n1nnnc1SCC(=O)NCC1(N2CCOCC2)CCCCC1 |  | inconclusive: 29.1 µM [inhibitor, single point]
33 | CCCCn1c(CCC)nc([N+](=O)[O-])c1Sc1ccc(Cl)cn1 |  | inconclusive: 32.6 µM [inhibitor, partial curve, poor fit]
34 | O=C(OCC(=O)N1CCOCC1)c1ccc(Br)cc1 |  | inconclusive: 18.3 µM [activator, partial curve, poor fit]
35 | CC(C)CC1(C)NC(=O)N(CC(=O)Nc2ccccc2Br)C1=O (centres undefined) | inactive: 12% | 
36 | O=C(CSCc1cccc(CSCC(=O)Nc2ccc3ccccc3c2)n1)Nc1ccc2ccccc2c1 |  | inconclusive: 29.1 µM [inhibitor, single point]
37 | COc1cccc(CN2CCNC(=O)C2CC(=O)NCC(C)(C)N2CCOCC2)c1OC (centres undefined) | inactive: -2.19% | 
38 | O=C(COc1ccc2c3c(c(=O)oc2c1)CCCC3)N1CCN(c2ccccc2)CC1 | inactive: 9.14% | 
39 | Cc1cc(C)nc(NS(=O)(=O)c2ccc(NC(=O)CN3C(=O)C4CC=CCC4C3=O)cc2)n1 (centres undefined) |  | inconclusive: 25.9 µM [activator, partial curve, poor fit]
40 | Cc1nn(-c2ccccc2)c(C)c1C(=O)OCc1ccc(C#N)cc1 |  | inconclusive: 29.1 µM [inhibitor, single point]
41 | O=C(NC1CCCCC1)c1cccc2c1C(=O)c1ccc(N3CCCC3)cc1S2(=O)=O |  | inconclusive: 23.1 µM [activator, partial curve, poor fit]
42 | O=C(NCc1ccco1)C1(S(=O)(=O)c2ccc(Cl)cc2)CC1 |  | inconclusive: 0.0206 µM [inhibitor, full curve, poor fit]
43 | O=C(COc1ccc(Cl)cc1)NCCNC(=O)c1ccccn1 | inactive: -4.51% | 
44 | CC(C)(C)C(=O)Nc1sc(-c2ccccc2)cc1C(=O)O |  | inconclusive: 20.6 µM [activator, partial curve]

Row | Compound | activity change, negative = inhibition | Potency
45 | Cc1[nH]nc2nc(SCC(=O)NCC3CCCO3)n(-c3ccc(Br)cc3)c(=N)c12 (centres undefined) | inactive: -24.7% | 
46 | O=C(c1ccc(S(=O)(=O)N2CCCCCC2)cc1)N(c1ccccn1)C1CCCCC1 |  | inconclusive: 20.6 µM [inhibitor, single point]
47 | O=C(c1cc2cc([N+](=O)[O-])ccc2oc1=O)N1CCN(c2ncccn2)CC1 | inactive: 5.22% | 
48 | Cc1cc(-c2ccccc2)n2ncc(-c3ccccc3)c2n1 |  | inconclusive: 0.291 µM [activator, full curve]
49 | Cc1c(C(N)=O)sc2nc(-c3ccccc3)cn12 |  | inconclusive: 18.4 µM [activator, partial curve]
50 | CCCn1c(O)c(N=NC(=O)CNC(=O)c2ccncc2)c2ccccc21 |  | inconclusive: 5.8 µM [activator, full curve, poor fit]
51 | CN(C)C(=S)NC1(C)CCS(=O)(=O)C1 (centres undefined) |  | inconclusive: 1.16 µM [inhibitor, partial curve, poor fit]
52 | CN(C(=O)c1cc2ccccc2oc1=O)C1(C)CCS(=O)(=O)C1 (centres undefined) | inactive: 3.24% | 
53 | N#Cc1ccccc1NC(=O)CSc1nnc(-c2ccccc2)n1-c1ccccc1 |  | inconclusive: 23.1 µM [inhibitor, partial curve, poor fit]
54 | Cc1ncc(CO)c2c1Oc1nc(-c3ccccc3)nc(SCC(=O)Nc3cccc(O)c3)c1C2 |  | inconclusive: 32.6 µM [activator, single point]
55 | C=CCNC(=O)N1CCC(c2nc3ccccc3s2)CC1 |  | inconclusive: 18.3 µM [inhibitor, partial curve, poor fit]
56 | COc1ccc(-c2cc(C(=O)N3CC4(C)CC3CC(C)(C)C4)no2)cc1OC (centres undefined) |  | inconclusive: 29.1 µM [inhibitor, single point]
57 | Cc1ccc(/C=N/NC(=O)c2cccs2)s1 |  | inconclusive: 14.6 µM [activator, partial curve]
58 | COc1ccc(-c2csc3ncnc(N4CCN(S(=O)(=O)c5ccccc5C#N)CC4)c23)cc1 |  | inconclusive: 20.6 µM [inhibitor, single point]
59 | Oc1ccc(-c2csc(-c3cccnc3)n2)cc1O |  | inconclusive: 3.66 µM [activator, full curve]
60 | C=CCOc1ccc(-c2nc3c(c(=O)[nH]c(=O)n3CCCC)n2C)cc1Br |  | inconclusive: 20.6 µM [activator, partial curve, poor fit]
61 | COc1ccc(CN(C)C(=O)c2cccc(Oc3ccccc3)c2)c(OC)c1OC |  | inconclusive: 20.6 µM [inhibitor, partial curve]
62 | O=C1/C(=C/Nc2ccc3c(c2)OCO3)CCc2ccccc21 |  | inconclusive: 0.206 µM [activator, partial curve]
63 | O=C(CSc1ccc(Cl)cc1)Nc1cccc(-c2nc3ccccc3[nH]2)c1 |  | inconclusive: 14.6 µM [activator, partial curve]
64 | O=C(Nc1ccc2oc(-c3ccc(Cl)c(Cl)c3)nc2c1)c1ncn[nH]1 |  | inconclusive: 1.16 µM [activator, full curve]
